Results from PubChem BioAssay AID662 (National Center for Advancing Translational Sciences (NCATS), 2007).
The other results are listed elsewhere or left out. Shown are side measurements of this screen, not its main read-out; they come without a call. Compounds called inactive in the main read-out are mostly missing here. Potencies come from curve fits of mixed quality, noted in brackets.

Assay: Cell signaling CRE-BLA (Fsk stim)
Conditions: CHO CRE-bla reporter (cAMP response element driving beta-lactamase), forskolin EC10, beta-lactamase ratio; measured here: 460 nm blue channel
Summary of the method: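 CHO CRE-bla cells, overnight plating in Opti-MEM with 0.5% dialyzed FBS; cpd titration + EC10 NKH 477, 3 h 37 °C; CCF4 2 h RT; ex 405/em 460 vs 530 ratio → %Activity, AC50.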

Compound	AC50
Cc1cnc(CNc2ccnc(-c3cccc(C#N)c3)n2)cn1	10 µM [rising, partial curve]
CC(=O)C1=C(O)C(=O)N(CCN2CCOCC2)C1c1ccccc1 (stereo not given)	0.1 µM [falling, full curve, poor fit]
Cc1ccc2c(c1)c1cccc3c1n2CCN3CCC(N)=O	12.6 µM [rising, partial curve]
CCN(CC)CCNC(=O)CCn1c(=S)[nH]c2cc3c(cc2c1=O)OCO3	5.01 µM [falling, single point]
Cc1cc(C)c2c(N)c(C(=O)NCc3ccco3)sc2n1	3.16 µM [falling, full curve]
Cc1cc(C(=O)N2CCc3ccccc32)c2cc(F)ccc2n1	0.2 µM [rising, full curve]
CCN(CC)c1nc2cc(OC)ccc2cc1C#N	12.6 µM [rising, partial curve]
Cc1c(C(=O)NCc2cccnc2)sc2nc(-c3ccc(F)cc3)cn12	3.98 µM [rising, full curve]
Cc1noc(/C=C/c2ccco2)c1S(=O)(=O)N1CCC(C(=O)N(C)Cc2ccccc2)CC1	3.16 µM [rising, single point]
CCOC(=O)C(C)Sc1nc2ccccc2c(=O)n1CC (stereo not given)	20 µM [rising, single point]
COc1ccc(-n2c(Cc3cccn3C)nnc2SCC(=O)Nc2ccc(C)cc2)cc1	15.8 µM [falling, partial curve]
COC(=O)COc1nsnc1N1CCOCC1	25.1 µM [rising, single point]
O=C(Nc1sc2c(c1C(=O)NCc1cccnc1)CCCC2)c1ccco1	0.631 µM [rising, partial curve]
COc1ccc(OC)c(NS(=O)(=O)c2ccc(NC(=O)C3COc4ccccc4O3)cc2)c1 (stereo not given)	5.01 µM [falling, partial curve, poor fit]
COc1cccc(Cn2c(=O)c(-c3ccccc3)nc3cncnc32)c1	15.8 µM [rising, partial curve]
O=C(O)CCC(=O)NC1CCCCC1NC(=O)CCC(=O)O (stereo not given)	0.316 µM [falling, full curve]
Oc1[nH]c2ccccc2c1C1=NCCCC1	25.1 µM [rising, single point]
Cc1cnc(CNc2nc(-c3ccc(N(C)C)cc3)nc3ccccc23)cn1	12.6 µM [rising, partial curve]
COc1cccc2[nH]c3c(N4CCCC(C)C4)ncnc3c12 (stereo not given)	20 µM [rising, single point]
O=C(OCn1nnc2ccccc2c1=O)c1cccs1	0.00316 µM [falling, full curve, poor fit]
CCc1nc2ccccc2n(CCOCCOCCn2c(=O)c(CC)nc3ccccc32)c1=O	5.01 µM [rising, full curve]
O=C(Oc1ccc2c(c1)OCO2)c1cccs1	5.01 µM [falling, single point]

14 compounds already listed, ordered by count of non-hydrogen atoms, largest number first.
Compound	AC50
CCc1nc2ccccc2n(CCOCCOCCn2c(=O)c(CC)nc3ccccc32)c1=O	5.01 µM [rising, full curve]
Cc1noc(/C=C/c2ccco2)c1S(=O)(=O)N1CCC(C(=O)N(C)Cc2ccccc2)CC1	3.16 µM [rising, single point]
COc1ccc(-n2c(Cc3cccn3C)nnc2SCC(=O)Nc2ccc(C)cc2)cc1	15.8 µM [falling, partial curve]
Cc1cnc(CNc2nc(-c3ccc(N(C)C)cc3)nc3ccccc23)cn1	12.6 µM [rising, partial curve]
CCN(CC)CCNC(=O)CCn1c(=S)[nH]c2cc3c(cc2c1=O)OCO3	5.01 µM [falling, single point]
Cc1c(C(=O)NCc2cccnc2)sc2nc(-c3ccc(F)cc3)cn12	3.98 µM [rising, full curve]
CC(=O)C1=C(O)C(=O)N(CCN2CCOCC2)C1c1ccccc1 (stereo not given)	0.1 µM [falling, full curve, poor fit]
Cc1cc(C(=O)N2CCc3ccccc32)c2cc(F)ccc2n1	0.2 µM [rising, full curve]
Cc1ccc2c(c1)c1cccc3c1n2CCN3CCC(N)=O	12.6 µM [rising, partial curve]
CCOC(=O)C(C)Sc1nc2ccccc2c(=O)n1CC (stereo not given)	20 µM [rising, single point]
O=C(OCn1nnc2ccccc2c1=O)c1cccs1	0.00316 µM [falling, full curve, poor fit]
CCN(CC)c1nc2cc(OC)ccc2cc1C#N	12.6 µM [rising, partial curve]
O=C(Oc1ccc2c(c1)OCO2)c1cccs1	5.01 µM [falling, single point]
Oc1[nH]c2ccccc2c1C1=NCCCC1	25.1 µM [rising, single point]

Carrying on.

Compound	AC50
CCCCCCN1Cc2ccccc2C1	25.1 µM [rising, single point]
COc1cccc(Cn2c(=O)cnc3cnc(N4CCN(C)CC4)nc32)c1	20 µM [rising, single point]
COC(=O)[C@@]1(Cc2ccc(F)cc2)[C@H]2c3cc(C(=O)N(C)C)n(Cc4ccc(OC(F)(F)F)cc4)c3C[C@H]2CN1C(=O)c1ccccc1	5.01 µM [falling, single point]
CC(=O)O[C@H]1C(=O)[C@]2(C)[C@H]([C@H](OC(=O)c3ccccc3)[C@@]3(O)C[C@H](OC(=O)[C@@H](O)[C@@H](NC(=O)c4ccccc4)c4ccccc4)C(C)=C1C3(C)C)[C@]1(OC(C)=O)CO[C@@H]1C[C@@H]2O	31.6 µM [falling, single point]
CN(C)c1nc(N)nc(CSc2n[nH]c(-c3ccccc3)n2)n1	3.98 µM [rising, partial curve]
CCOC(=O)c1oc2ccccc2c1NC(=O)c1ccccc1OC	2.51 µM [rising, partial curve]
CC1Cc2ccccc2N1S(=O)(=O)c1ccc2c(c1)n(C)c(=O)c(=O)n2C (stereo not given)	1.26 µM [falling, single point]
Cc1ccc(CNC(=O)Nc2ccccc2)cc1	0.00794 µM [falling, full curve, poor fit]
CC(=O)c1ccc(Nc2cc(C)nc3nc(C)nn23)cc1	12.6 µM [rising, partial curve]
Cc1ccccc1Cn1c(-c2cncs2)nc2ccccc21	5.01 µM [rising, partial curve]
CCOC(=O)c1[nH]c(=O)[nH]c1CSc1nc(C)cc(C)n1	1 µM [falling, full curve, poor fit]
COC(=O)C1=C(N)N(c2ccc(F)cc2)C2=C(C(=O)CCC2)C1c1ccc2c(c1)OCO2 (stereo not given)	12.6 µM [rising, single point]
O=C(COc1ccc2ccccc2c1CN1CCOCC1)N1CCc2ccccc21	0.0794 µM [falling, full curve, poor fit]
CCCC(c1nnnn1C(C)(C)CC)N(Cc1ccco1)Cc1cc2ccc(OC)cc2[nH]c1=O (stereo not given)	10 µM [rising, single point]
CN(CC(=O)Nc1ccc(Cl)cc1)S(=O)(=O)c1cccc2cccnc12	10 µM [falling, single point]
CCOc1ccccc1C(=O)NCC(=O)OCC(=O)N1C(C)CCCC1C (stereo not given)	12.6 µM [rising, partial curve]
CCNc1ncc2nc(CCc3ccccc3)c(=O)n(Cc3ccc(F)cc3)c2n1	2.51 µM [rising, partial curve]
O=C1c2c(O)ccc([N+](=O)[O-])c2C(=O)c2c([N+](=O)[O-])ccc(O)c21	25.1 µM [falling, partial curve]
Cc1oc2nc(SCCCC(=O)NCCO)nc(N)c2c1C	0.0501 µM [rising, full curve, poor fit]
O=C(CCC(=O)N1CCc2ccccc2C1)N1CCN(S(=O)(=O)c2ccccc2)CC1	3.16 µM [falling, partial curve]
c1ccc(CN2CCN(c3nc(-c4ccccc4)nc(-n4ccnc4)n3)CC2)cc1	2.51 µM [rising, full curve, poor fit]
O=C(Cc1c[nH]c2ccccc12)NCc1ccc2c(c1)OCO2	7.94 µM [falling, partial curve]

Compound	AC50
CCC(=O)N1CCc2cc(Br)cc(S(=O)(=O)C3(C(=O)OC)CC3)c21	25.1 µM [rising, single point]
Cc1nnc(SCC(=O)N2CCC(c3noc4ccc(F)cc34)CC2)s1	3.98 µM [falling, partial curve]
CCN1C(=O)c2cccc3c(S(=O)(=O)Nc4ncccc4C)ccc1c23	10 µM [rising, partial curve]
COC(=O)C[C@](O)(CCCC(C)(C)O)C(=O)O[C@@H]1C(OC)=C[C@]23CCCN2CCc2cc4c(cc2[C@H]13)OCO4	1 µM [falling, full curve]
COC(=O)c1oc2nc(C)cc(C)c2c1N	25.1 µM [rising, single point]
COc1ccc(N2CCN(Cc3nc4c(c(=O)[nH]c(=O)n4C)n3CCCc3ccccc3)CC2)cc1	10 µM [rising, partial curve]
COc1ccc(C2CC(c3cc(Br)ccc3F)n3nnnc3N2)cc1 (stereo not given)	15.8 µM [rising, single point]
CCOc1ccc2nc(NC(=O)C(NS(=O)(=O)c3cccs3)C(C)C)sc2c1 (stereo not given)	10 µM [rising, partial curve]
O=C(COC(=O)c1ccccc1Oc1ccccc1)NC1CCS(=O)(=O)C1 (stereo not given)	1.26 µM [falling, full curve]
Cc1ccccc1OCCC(=O)Nc1c(C)n(C)n(-c2ccccc2)c1=O	0.00316 µM [falling, full curve, poor fit]
COc1ccc(C2/C(=C(/O)c3ccccc3)C(=O)C(=O)N2CCN2CCOCC2)c(OC)c1 (stereo not given)	3.98 µM [falling, single point]
CCn1c(N)c(C(=O)Nc2ccccc2C(=O)OC)sc1=S	7.94 µM [rising, partial curve]
Cc1nc2nc(C)c(CCC(=O)N3CCOCC3)c(C)n2n1	0.631 µM [falling, full curve, poor fit]
COc1ccc(-c2noc(CCC(=O)Nc3cccc(C)c3)n2)cc1	6.31 µM [falling, partial curve, poor fit]
COc1ccc(Oc2ncc3nc(-c4cn(C)c5ccccc45)c(=O)n(CCC#N)c3n2)cc1	2 µM [rising, full curve]
C=CCSc1nc(N)c2c(C)c(C)sc2n1	0.501 µM [rising, partial curve]
CCOC(=O)C1=C(C)NC(=O)N[C@@H]1c1coc2cc(C)cc(C)c2c1=O	1 µM [falling, single point]
COc1cccc(Cn2c(=O)c(-c3cn(C)c4ccccc34)nc3cnc(OC)nc32)c1	12.6 µM [rising, partial curve]
COc1ncc2nc(-c3cccs3)c(=O)n(Cc3ccc(F)cc3)c2n1	5.01 µM [rising, partial curve]
COc1ccc(Cn2c(CCC(=O)Nc3ccc(CC#N)cc3)nc3cccnc32)cc1	0.794 µM [rising, full curve]
CCSc1nnc(NC(=O)c2nn(C(C)C)c(=O)c3ccccc23)s1	3.16 µM [rising, single point]

Fetched by compound from the entries so far:
Compound	AC50
CCN1C(=O)c2cccc3c(S(=O)(=O)Nc4ncccc4C)ccc1c23	10 µM [rising, partial curve]
COc1ncc2nc(-c3cccs3)c(=O)n(Cc3ccc(F)cc3)c2n1	5.01 µM [rising, partial curve]
